# Assay results reported in PubChem BioAssay AID272 (DTP/NCI, 2004).
# The list is a part of this screen's results and no random one: it gathers tests that were run many times, whatever their T/C, doses with no T/C, and many T/C values between a quarter and a half above the control. Further doses and runs are listed elsewhere. T/C: endpoint of the treated group in % of that of the vehicle group. Some doses have a count of surviving animals in place of a T/C: the source files T/C as zero there, which appears to mark a toxic dose or a test without result, not a measured value. Some doses without a T/C left all or most animals alive at the check, yet need not have been tolerated: the source hardly ever lists a survival T/C far under the control, and the zero likely stands for such cases as well. Counts of survivors are from the toxicity check (mostly the fifth day) where no day follows; animals may have died later. Schedules are NCI's codes, read here as Q, the interval in days (D) or hours (H), X, the number of doses. Some schedules carry Z or #; the key to these is not given. Some doses were run more than once; the results are listed from low to high. Where survival is the endpoint, this PubChem deposit counts one and a half times the control or more as active, and values a quarter to a half above the control carry no call in these data; other NCI protocols may use other cut-offs. Some T/C values are followed by the survivors on the day toxicity was checked, most often the fifth; without a count, all were alive then.
# Tested on: Lewis lung carcinoma i.m., BDF1 mice, T/C %
# Assay: NCI In Vivo Anticancer Drug Screen. Data for tumor model Lewis Lung Carcinoma (intramuscular) in B6D2F1 (BDF1) mice
# Outline: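 Mice carrying transplantable tumours received test compound. Survival or tumour size was recorded and expressed as the treated-group value (T) divided by the vehicle-treated control-group value (C).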
# [1] = T/C endpoint: median survival time, dose: 50.0 mg/kg/injection, schedule: Q01DX011 (ip), vehicle: saline with Tween-80, higher T/C = longer survival
# [2] = T/C endpoint: median survival time, dose: 100.0 mg/kg/injection, schedule: Q01DX011 (ip), vehicle: saline with Tween-80, higher T/C = longer survival
smiles,measurement,setting,value
COc1ccc2nc3cc(Cl)ccc3c(NCCO)c2c1,survivor count,"T/C endpoint: mean tumor weight (est.), dose: 137.5 mg/kg/injection, schedule: Q01DX011 (ip), vehicle: saline with Tween-80, higher T/C = larger tumour",2 of 8
same,survivor count,"T/C endpoint: median survival time, dose: 137.5 mg/kg/injection, schedule: Q01DX011 (ip), vehicle: saline with Tween-80, higher T/C = longer survival",2 of 8
same,survivor count,"T/C endpoint: median survival time, dose: 275.0 mg/kg/injection, schedule: Q01DX011 (ip), vehicle: saline with Tween-80, higher T/C = longer survival",0 of 8
O=C(O)C1CSCN1 (stereo unspecified),T/C,"T/C endpoint: median survival time, dose: 12.5 mg/kg/injection, schedule: Q#BDX045 (ip), vehicle: sodium bicarbonate, higher T/C = longer survival",135 % of control
same,T/C,"T/C endpoint: median survival time, dose: 25.0 mg/kg/injection, schedule: Q#BDX045 (ip), vehicle: sodium bicarbonate, higher T/C = longer survival",139 % of control
same,T/C,"T/C endpoint: median survival time, dose: 50.0 mg/kg/injection, schedule: Q#BDX045 (ip), vehicle: sodium bicarbonate, higher T/C = longer survival",138 % of control
Cc1c(C(=O)O)nc(/C=C/C(=O)O)[nH]c1=O,survivor count,"T/C endpoint: median survival time, dose: 32.0 mg/kg/injection, schedule: Q01DX009 (ip), vehicle: water, higher T/C = longer survival",10 of 10
CC[n+]1ccc(Nc2ccc(NC(=O)c3ccc(Nc4cc[n+](CC)c5ccc(N)cc45)cc3)cc2)cc1,survivor count,"T/C endpoint: mean tumor weight, dose: 4.0 mg/kg/injection, schedule: Q01DX011 (ip), vehicle: water, higher T/C = larger tumour",4 of 8
same,survivor count,"T/C endpoint: median survival time, dose: 4.0 mg/kg/injection, schedule: Q01DX011 (ip), vehicle: water, higher T/C = longer survival",4 of 8
same,survivor count,"T/C endpoint: median survival time, dose: 6.8 mg/kg/injection, schedule: Q01DX007 (sc), vehicle: saline, higher T/C = longer survival",8 of 8
CCCCCCCCCCCCCCCC[N+](C)(C)c1nc(Cl)nc(Cl)n1,survivor count,"T/C endpoint: mean tumor weight (est.), dose: 30.0 mg/kg/injection, schedule: Q01DX011 (ip), vehicle: saline, higher T/C = larger tumour",1 of 8
same,survivor count,"T/C endpoint: median survival time, dose: 30.0 mg/kg/injection, schedule: Q01DX011 (ip), vehicle: saline, higher T/C = longer survival",1 of 8
same,survivor count,"T/C endpoint: median survival time, dose: 60.0 mg/kg/injection, schedule: Q01DX011 (ip), vehicle: saline, higher T/C = longer survival",0 of 8
Nc1nc(Cl)nc2c1ncn2C1CC(O)C(CO)O1 (stereo unspecified),survivor count,"T/C endpoint: median survival time, dose: 16.0 mg/kg/injection, schedule: Q01DX Z (ip), vehicle: other, higher T/C = longer survival",8 of 8
same,survivor count,"T/C endpoint: median survival time, dose: 32.0 mg/kg/injection, schedule: Q01DX Z (ip), vehicle: other, higher T/C = longer survival",6 of 8
same,survivor count,"T/C endpoint: median survival time, dose: 64.0 mg/kg/injection, schedule: Q01DX Z (ip), vehicle: other, higher T/C = longer survival",1 of 8 and 8 of 8
same,survivor count,"T/C endpoint: median survival time, dose: 128.0 mg/kg/injection, schedule: Q01DX Z (ip), vehicle: other, higher T/C = longer survival",0 of 8 and 8 of 8
CCC/C(C)=N/Nc1ccccn1,survivor count,[1],7 of 8
same,survivor count,[2],0 of 8
COC(=O)Nc1nc2ccc(C(=O)c3cccs3)cc2[nH]1,survivor count,"T/C endpoint: median survival time, dose: 50.0 mg/kg/injection, schedule: Q03DX008 (ip), vehicle: other, higher T/C = longer survival",10 of 10
same,T/C,"T/C endpoint: median survival time, dose: 50.0 mg/kg/injection, schedule: Q## X005 (ip), vehicle: other, higher T/C = longer survival",134 % of control
same,T/C,"T/C endpoint: median survival time, dose: 60.0 mg/kg/injection, schedule: Q## X005 (ip), vehicle: other, higher T/C = longer survival",133 % of control
same,T/C,"T/C endpoint: median survival time, dose: 70.0 mg/kg/injection, schedule: Q## X005 (ip), vehicle: other, higher T/C = longer survival",137 % of control [8 of 10 alive]
COc1ccc2c(Nc3ccc(NS(C)(=O)=O)cc3)c3ccccc3nc2c1,survivor count,"T/C endpoint: median survival time, dose: 25.0 mg/kg/injection, schedule: Q01DX011 (ip), vehicle: saline with Tween-80, higher T/C = longer survival",0 of 8
same,survivor count,[1],0 of 8
same,survivor count,[2],0 of 8
